Measured values from the supplement of paper PMC10338343.
± gives the standard deviation. Only a part is listed here, and it is no random draw. Many of these values have a large error.
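Note: 1 nM active piRISC with 0.1 nM target library at 33 °C single turnover.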

These sequences were tested on MIWI (PIWIL1) piRISC loaded with piRNA #2 (30 nt) (assay: pre-steady-state target cleavage rate (min^-1); MIWI and MILI are mouse PIWI proteins and EfPiwi is from a freshwater sponge; tags in brackets are library labels; higher = faster piRNA-guided slicing of the target). Conditions: guide: piRNA #2 5'p-UUAGGUAACCCAGUAGAUCCAGAGGAAUUC; auxiliary factor: 500 nM mouse GTSF1.
How it was run: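 For Cleave-'n-Seq, a transcribed, DNA-blocked target RNA library […] met 1 nM active affinity-purified piRISC with one synthetic guide at 33 °C for 0–8 or 0–960 min in HEPES–potassium acetate buffer, with or without 500 nM GTSF1 partner protein. Uncleaved targets were sequenced and normalised to depth and weakly complementary targets, with three trials pooled and k3 capped at 0.0001 min^-1. A burst-and-steady-state fit supplied the pre-steady-state cleavage rate.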
In the case of CAAUUCCUCUCGAUGUACUGGGUUACCUAA, the “pre-steady-state target cleavage rate” value is reported as 0.672 ± 0.056. CUUAAGGAGACCUUCUACUGGGAUUACCUAA was tested, and the “pre-steady-state target cleavage rate” value was 0.00379 ± 0.0061. For CUUAAGGAGACCUAGAUGAGAGGUUACCUAA, the “pre-steady-state target cleavage rate” value was 0.00166 ± 0.0046. With CUUAAGGAGACCUAGUACUGGGCUACCUAA the “pre-steady-state target cleavage rate” value was 0.00016 ± 0.021. CUUAAGGAGACCAUCUACUGGCUAACCUAA was tested, and the “pre-steady-state target cleavage rate” value was 0.00112 ± 0.0049. CUUAAGGAGAGGAUCUACUGGGUUACCAA was tested, and the “pre-steady-state target cleavage rate” value was 0.00301 ± 0.0031. With CUUAAGGAGAGGAUCUACUGCGUUACCUUA the “pre-steady-state target cleavage rate” value was 0.00283 ± 0.0049. For CUUAAGGAGACCUUCUACUUGGUUACCUAA, the “pre-steady-state target cleavage rate” value was 0.00134 ± 0.0057. In the case of CUUAAGCUCUGGAUCUCUGGGUUACCUAA, the “pre-steady-state target cleavage rate” value is reported as 0.00128 ± 0.0093. CUUAAGGAGACCAUCUACUGCGUAACCUAA was tested, and the “pre-steady-state target cleavage rate” value was 0.000792 ± 0.011. For CUUAAGGAGACCAGUCUACUGGGUUACCUAA, the “pre-steady-state target cleavage rate” value was 0.00212 ± 0.0039. In the case of CAAUUCCUGUGGAUCUACAGGGUUACCUAA, the “pre-steady-state target cleavage rate” value is reported as 0.268 ± 0.036. With CUUAAGGAGUGCUUCUACUGGGUUACCUAA the “pre-steady-state target cleavage rate” value was 0.00285 ± 0.0038. With CUUAACCUCUGGAUCUAACUGGGUUACCUAA the “pre-steady-state target cleavage rate” value was 0.00121 ± 0.0063. In the case of CUUAAGGACUGGAUCUACUGGGAAACCUAA, the “pre-steady-state target cleavage rate” value is reported as 0.00495 ± 0.013. With CUUAAGGAGAGGAUCUACUGGGUUACCAUAA the “pre-steady-state target cleavage rate” value was 0.00299 ± 0.0054. CUUAAGGAGACCUUCUACUGGGUUACCUAAA was tested, and the “pre-steady-state target cleavage rate” value was 0.00262 ± 0.005. With CUUUUCCUCUGGAUCAUGUGGGUUACCUAA the “pre-steady-state target cleavage rate” value was 0.000691 ± 0.012. CUUAACCUCUGGAUCUUACUGGGUUACCUAA was tested, and the “pre-steady-state target cleavage rate” value was 0.0021 ± 0.0039. CUUAUCCUCUGGAUCAUGUGGGUUACCUAA was tested, and the “pre-steady-state target cleavage rate” value was 0.000539 ± 0.013. For CUUAAGGAGACCAUCUACUCCGUUACCUAA, the “pre-steady-state target cleavage rate” value was 0.00266 ± 0.0037. In the case of CUUAAGGAGACGAUCAACAGGGUUACCUAA, the “pre-steady-state target cleavage rate” value is reported as 0.000326 ± 0.022. CUUAUCCUCUGGAUCUAGCUGGGUUACCUAA was tested, and the “pre-steady-state target cleavage rate” value was 0.000853 ± 0.0089. With CUUAAGGACUGGAACUACAGGGUUACCUAA the “pre-steady-state target cleavage rate” value was 0.00493 ± 0.013. CUUAAGGAGACGAUCUAAUGGGUUACCUAA was tested, and the “pre-steady-state target cleavage rate” value was 0.00137 ± 0.0058. In the case of GAAUUCCUCUGGAACUACUGGGUUACGUAA, the “pre-steady-state target cleavage rate” value is reported as 0.657 ± 0.04. In the case of CUUAAGGAGACCUACUACUGGGUUACUAA, the “pre-steady-state target cleavage rate” value is reported as 0.00166 ± 0.0046. In the case of CUAUUCCUCUGGUUCUACUGGGUUACGUAA, the “pre-steady-state target cleavage rate” value is reported as 0.629 ± 0.059. In the case of CUUAAGGAGACGAUCUACUGGUUACCUAA, the “pre-steady-state target cleavage rate” value is reported as 0.0011 ± 0.0047. With CUUAAGGAGAGCAUCUACUGGGUUUCCUAA the “pre-steady-state target cleavage rate” value was 0.00188 ± 0.0056. With GAAUACCUCAGGAUCUACUGGGUUACCUAA the “pre-steady-state target cleavage rate” value was 0.421 ± 0.043. With CUUAAGGAGACCUUCUACUGGCUUACCAAA the “pre-steady-state target cleavage rate” value was 0.00152 ± 0.0081. For CUUAAGGACUGGAUGAACUGGGUUACCUAA, the “pre-steady-state target cleavage rate” value was 0.00396 ± 0.013. For CUUAAGGAGAGGAUCUACAUGGGUUACCUAA, the “pre-steady-state target cleavage rate” value was 0.000156 ± 0.035. For CUUAAGGAGAGGAUCUAGUGGGUUUCCUAA, the “pre-steady-state target cleavage rate” value was 0.000497 ± 0.019. CUUAAGGAGACCAUCACUGGGUUACCUAA was tested, and the “pre-steady-state target cleavage rate” value was 0.00178 ± 0.0054. In the case of CUUAAGGAGAGGAUCUCACUGGGUUACCUAA, the “pre-steady-state target cleavage rate” value is reported as 0.000285 ± 0.021. For CUUAAGGAGACCUACUACUGGGUUACCAUAA, the “pre-steady-state target cleavage rate” value was 0.00213 ± 0.0041. For CUUAAGGAGACCUUCUACUGGGUUACCCAA, the “pre-steady-state target cleavage rate” value was 0.00288 ± 0.0058. In the case of CUUAAGGAGACCAUCUACUGGGAUUACCUAA, the “pre-steady-state target cleavage rate” value is reported as 0.000678 ± 0.016. CUUAAGGAGACGAUGCUACUGGGUUACCUAA was tested, and the “pre-steady-state target cleavage rate” value was 0.000844 ± 0.008. For CUUAAGGACUGGAUCUUCUGGGUAACCUAA, the “pre-steady-state target cleavage rate” value was 0.00388 ± 0.013. In the case of CUUAAGGAGUGGAUCUACUGGGUUUCCAAA, the “pre-steady-state target cleavage rate” value is reported as 0.000258 ± 0.02. In the case of CUUAAGGACGGGAUCUACUGGGUUACCUAA, the “pre-steady-state target cleavage rate” value is reported as 0.0681 ± 0.038. For CUUAAGGAGACCUACUACUGCGUUACCAAA, the “pre-steady-state target cleavage rate” value was 0.00111 ± 0.0066. In the case of CUUAAGGAGACGACUCUACUGGGUUACCUAA, the “pre-steady-state target cleavage rate” value is reported as 0.000635 ± 0.0089. With CUUAAGGAGACCAACUACUGGCUUACCUAA the “pre-steady-state target cleavage rate” value was 0.00172 ± 0.0054. CUUAAGGAGUGGAUCUAGUGGGUUACCAAA was tested, and the “pre-steady-state target cleavage rate” value was 0.00194 ± 0.0056. In the case of CUUAAGGACUCGAUCUACUGGGAUACCUAA, the “pre-steady-state target cleavage rate” value is reported as 0.0027 ± 0.0088. For CUUAAGGAGACCUACUACUGGGUAACCUAA, the “pre-steady-state target cleavage rate” value was 0.000935 ± 0.0084. In the case of CAAUUCCUCAGGAUCUUCUGGGUUACCUAA, the “pre-steady-state target cleavage rate” value is reported as 0.485 ± 0.058. For CUUAAGGACUGGUUCUACUGGGUUACCAAA, the “pre-steady-state target cleavage rate” value was 0.0104 ± 0.015. For CUUAAGGAGACCUAGUACUGGGUUACAUAA, the “pre-steady-state target cleavage rate” value was 0.00145 ± 0.0042. CUUAAGGAGACCAUCUACUGGGUUACCUGAA was tested, and the “pre-steady-state target cleavage rate” value was 0.000912 ± 0.016. With CUUAAGGAGACCUACUACUGGGUUAACCUAA the “pre-steady-state target cleavage rate” value was 0.00132 ± 0.0078. With CUUAAGGAGUGCAUCUAGUGGGUUACCUAA the “pre-steady-state target cleavage rate” value was 0.00123 ± 0.0063. For CUUAAGGAGACGAUCUACGUGGGUUACCUAA, the “pre-steady-state target cleavage rate” value was 0.000959 ± 0.011. In the case of CUUAAGGAGACCUACUACUGGGUAACGUAA, the “pre-steady-state target cleavage rate” value is reported as 0.000607 ± 0.012. “CUAUUCCUCUGGAUCUACUGGGUAUGGAUA [g8:g28:cont:t1A]” was tested, and the “pre-steady-state target cleavage rate” value was 0.00177 ± 0.0074. For CUUAAGGAGACCAACUACUGGGUAACCUAA, the “pre-steady-state target cleavage rate” value was 0.000747 ± 0.011. In the case of CUUAAGGAGACCUAGAACUGGGUUGCCUAA, the “pre-steady-state target cleavage rate” value is reported as 0.000496 ± 0.016. For CUUAAGGUCUGGAUCUACUAGGGUUACCUAA, the “pre-steady-state target cleavage rate” value was 0.00107 ± 0.0069. For GAAUUCCUCUGGAUCUACUCGCUUACCUAA, the “pre-steady-state target cleavage rate” value was 0.00392 ± 0.0028. With CUUAAGGAGACCUAGAACUGGGUUACCUAA the “pre-steady-state target cleavage rate” value was 0.000132 ± 0.038. In the case of CUUAAGGAGACCUACUACUGGGUUACCUCAA, the “pre-steady-state target cleavage rate” value is reported as 0.0014 ± 0.0063. CUUAAGGAGACCUAGUACUGGGUUACCUA was tested, and the “pre-steady-state target cleavage rate” value was 0.0012 ± 0.0041. CUUAAGGAGACCUAGAUCUGGGUUACCAAA was tested, and the “pre-steady-state target cleavage rate” value was 0.000506 ± 0.012. With “CUUAAGGAGACCUAGAUGACGGUUACCUAC [g2:g10:cont:t1C]” the “pre-steady-state target cleavage rate” value was 0.000558 ± 0.011. For CUUAAGGUCUGGAUCUACUCGGUAACCUAA, the “pre-steady-state target cleavage rate” value was 0.000327 ± 0.039. For CUUAAGGAGUGCAUCUACUGGGUUUCCUAA, the “pre-steady-state target cleavage rate” value was 0.00192 ± 0.0042. For CUUAUCCUCUGGAUCUACUGCCAUACCUAA, the “pre-steady-state target cleavage rate” value was 0.00396 ± 0.0048.
